PubChem BioAssay AID504793 – Drosophila RNAi Screening Center, 2011
The screen tested about 23,000 reagents; shown is an unselected part of those with a known target gene and a result. In the full data, 62 (0.27%) were called active. 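Calls come from follow-up tests whose scores are not deposited, so confirmed genes may have low counts here; counts are not normalised per plate.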 Raw values are not corrected between plates. A number with no mark means an inactive call.

- Assay: 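Knock-downs allowing continued mitosis even though DNA is damaged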 (primary screen)
- Cells: Drosophila S2R+ cells
- Knock-down reagent: long dsRNA against Drosophila genes, about 0.25 µg dsRNA per well
- Duration: 4 days of dsRNA, then 4 hours of drug before read-out
- Conditions: doxorubicin 0.5 µM for 4 hours to cause double-strand breaks, in cells also given a low, harmless dose of dsRNA against nbs to sensitise the assay
- Read-out: 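Mitotic index as the number of phospho-histone H3-positive cells in each well following doxorubicin, given as raw counts without normalisation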
- Reading the numbers: mitotic cells: higher = more cells in mitosis, weaker G2 arrest
- Rule for the call: 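a call needs confirmation in secondary tests, with other dsRNAs and a check of mitotic timing without damage, not just a high primary count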
- Meaning of the calls: active = confirmed in follow-up tests; inactive = not confirmed

target,amplicon,"mitotic cells, replicate 1"
Xe7,DRSC12307,3
ubl,DRSC04998,4
skd,DRSC11898,5
CG12531,DRSC19466,3
CG12531,DRSC27679,9
CG30487,DRSC05377,8
CG9328,DRSC03203,2
CG18234,DRSC10309,3
lncRNA:CR32661,DRSC19794,7
lncRNA:CR32661,DRSC28066,6
CG7882,DRSC04899,3
Snx17,DRSC02884,9
Snx17,DRSC28893,5
CG9806,DRSC18444,12
CG9806,DRSC27417,4
CG5084,DRSC06913,10
CG5084,DRSC27650,2
PGRP-LA,DRSC10327,5
PGRP-LA,DRSC10414,5
CG9628,DRSC11082,7
CG9628,DRSC26359,5
karr,DRSC20681,3
CG32428,DRSC11697,8
CG32428,DRSC11768,2
CG32428,DRSC25993,9
Opbp,DRSC04966,8
Opbp,DRSC28850,6
CG3407,DRSC00603,6
viaf,DRSC10326,7
CG9269,DRSC16465,9
obe,DRSC15736,8
CG7745,DRSC23103,8
CG7745,DRSC29591,2
CG10543,DRSC23102,10
Obp99d,DRSC15046,14
CG5273,DRSC18612,11
dunk,DRSC36514,9
dunk,DRSC36515,10
FoxL1,DRSC08717,2
FoxL1,DRSC25265,6
Pi4KIIIalpha,DRSC18655,15
Swip-1,DRSC02083,7
Swip-1,DRSC02084,4
CG14569,DRSC11730,7
CG34149,DRSC14537,2
